These are yes or no findings as the source states them, for the method shown. Binding seen in cells or lysates may run through a third protein. Binding calls can cover weak binding; strength is not graded here. Where a sequence is shown, tags or fusion partners need not be part of it.
How the values were obtained:
[1] = biological target: Glyceraldehyde 3-phosphate-dehydrogenase (GAPDH), endogenous protein of rat hippocampus (Rattus norvegicus); assay: GST pull-down, Western blot
[2] = biological target: Glyceraldehyde 3-phosphate-dehydrogenase (GAPDH), endogenous protein of rat hippocampus (Rattus norvegicus); assay: GST pull-down from rat hippocampal tissue, 20 µg fusion, 100 µg tissue (FIG. 6I)
[3] = biological target: Glyceraldehyde 3-phosphate-dehydrogenase (GAPDH), endogenous protein of rat hippocampus (Rattus norvegicus); assay: repeated GST pull-down from rat hippocampal tissue
[4] = biological target: Glyceraldehyde 3-phosphate-dehydrogenase (GAPDH), endogenous protein of rat hippocampus (Rattus norvegicus); assay: GST pull-down from rat hippocampal extracts, Western blot (FIG. 6B)

Measured: binding

B1: GST-GluR2 NT1-3-2 (Y142-K172) (peptide, not shown: a dimerising Fc or GST)
chain: YYQWDKFAYLYDSDRGLSTLQAVLDSAAEKK
binds: all assays above

— patent publication US20130336951A1
